Earlier results in patent US20150024042A1 (POZEN INC., priority 2011, published 2015).
For at least one compound, name, drawing or mass did not settle the structure.

Test system: ADP-induced platelet aggregation
Details: patients under clopidogrel maintenance treated with omeprazole; without omeprazole 220.0 [143.8-388.8]; p=0.001

For `COc1ccc2[nH]c([S+]([O-])Cc3ncc(C)c(OC)c3C)nc2c1` (stereo not shown) [omeprazole], the “ADP-induced platelet aggregation, multiple electrode platelet aggregometry” value is given as 295.5 [193.5-571.2] AU*min.
